Article PMC9489697
Read-outs that look alike come from different tables or passages of the source. No constants are given. Whether binding was seen depends on the method and setting. Binding seen in cells or lysates may run through a third protein. Some binding calls cover weakened binding; strength is not graded here. One block for each molecule: values may come before it.

Sequences of proteins named here, by UniProt entry; tags and fusion partners are left off. A change or cut given only in a name is not applied to a line headed by its entry. Residues count along the entry.
UniProt Q13485: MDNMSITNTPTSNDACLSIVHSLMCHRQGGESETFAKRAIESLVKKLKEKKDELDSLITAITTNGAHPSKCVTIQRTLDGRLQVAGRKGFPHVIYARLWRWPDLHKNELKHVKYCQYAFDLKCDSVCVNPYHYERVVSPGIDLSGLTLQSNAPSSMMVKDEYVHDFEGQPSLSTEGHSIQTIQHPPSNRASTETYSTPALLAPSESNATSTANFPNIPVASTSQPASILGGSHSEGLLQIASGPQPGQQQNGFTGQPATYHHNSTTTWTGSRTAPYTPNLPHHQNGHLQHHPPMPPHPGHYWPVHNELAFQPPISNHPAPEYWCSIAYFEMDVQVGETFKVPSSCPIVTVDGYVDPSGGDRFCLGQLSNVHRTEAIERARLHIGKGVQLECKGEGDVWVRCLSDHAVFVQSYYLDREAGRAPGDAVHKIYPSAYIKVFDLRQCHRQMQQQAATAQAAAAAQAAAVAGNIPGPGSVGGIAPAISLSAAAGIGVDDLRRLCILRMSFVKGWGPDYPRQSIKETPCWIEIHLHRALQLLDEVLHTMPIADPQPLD
UniProt P19838, residues 1-433: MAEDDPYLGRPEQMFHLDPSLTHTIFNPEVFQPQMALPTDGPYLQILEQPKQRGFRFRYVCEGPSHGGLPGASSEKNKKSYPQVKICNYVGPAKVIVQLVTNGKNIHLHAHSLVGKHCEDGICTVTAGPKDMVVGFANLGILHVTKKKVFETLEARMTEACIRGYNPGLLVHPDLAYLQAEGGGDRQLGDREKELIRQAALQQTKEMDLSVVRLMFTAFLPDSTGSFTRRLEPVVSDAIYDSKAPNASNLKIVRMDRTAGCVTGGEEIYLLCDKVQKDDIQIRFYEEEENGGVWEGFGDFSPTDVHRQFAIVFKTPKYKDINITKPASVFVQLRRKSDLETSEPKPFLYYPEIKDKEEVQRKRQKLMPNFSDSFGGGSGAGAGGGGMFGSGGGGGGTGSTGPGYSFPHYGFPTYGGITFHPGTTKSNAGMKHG
UniProt Q04206: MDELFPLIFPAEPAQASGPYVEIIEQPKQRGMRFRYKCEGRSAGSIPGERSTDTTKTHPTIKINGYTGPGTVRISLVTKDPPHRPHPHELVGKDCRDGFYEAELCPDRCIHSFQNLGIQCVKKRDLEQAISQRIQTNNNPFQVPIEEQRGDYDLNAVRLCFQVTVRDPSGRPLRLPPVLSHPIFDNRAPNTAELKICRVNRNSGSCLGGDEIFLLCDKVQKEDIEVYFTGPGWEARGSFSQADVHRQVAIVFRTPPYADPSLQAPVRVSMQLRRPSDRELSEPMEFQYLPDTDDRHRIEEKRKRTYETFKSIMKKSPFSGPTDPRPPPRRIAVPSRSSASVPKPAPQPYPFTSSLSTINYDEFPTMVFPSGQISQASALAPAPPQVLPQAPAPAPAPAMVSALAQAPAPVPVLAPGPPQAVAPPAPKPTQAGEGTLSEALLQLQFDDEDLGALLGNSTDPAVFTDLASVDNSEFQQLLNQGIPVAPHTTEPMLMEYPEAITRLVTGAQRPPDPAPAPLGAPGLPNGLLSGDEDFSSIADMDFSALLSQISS

Tests used:
Test in all cases: co-IP; lysates of BxPC3-EV, BxPC3-WT and BxPC3-Mut stably transfected cells, with or without DTLL induction; precipitated with SMAD4 antibody (rabbit normal IgG as control) at 4 °C overnight, protein A/G agarose beads; Western blot of the eluates
[1] = target: wild-type SMAD4 (mothers against decapentaplegic homolog 4) (human) (UniProt Q13485)
[2] = target: mutant SMAD4 (R100T) (human) (UniProt Q13485)
[3] = target: wild-type SMAD4 (mothers against decapentaplegic homolog 4) (human) (UniProt Q13485); remark: listed apart in the source
[4] = target: mutant SMAD4 (R100T) (human) (UniProt Q13485); remark: listed apart in the source

- binding [1]: binds
- binding [2]: binds
Molecule: P50 unit of NF-κB (from UniProt P19838 1-433)

- binding [1]: binds
- binding [2]: binds
Molecule: P65 unit of NF-κB (from UniProt Q04206 1-551)

- binding [3]: binds
- binding [4]: binds
B1: TRIM33 (enzyme, UniProt Q9UPN9 1-1127)
chain: MAENKGGGEAESGGGGSGSAPVTAGAAGPAAQEAEPPLTAVLVEEEEEEGGRAGAEGGAAGPDDGGVAAASSGSAQAASSPAASVGTGVAGGAVSTPAPAPASAPAPGPSAGPPPGPPASLLDTCAVCQQSLQSRREAEPKLLPCLHSFCLRCLPEPERQLSVPIPGGSNGDIQQVGVIRCPVCRQECRQIDLVDNYFVKDTSEAPSSSDEKSEQVCTSCEDNASAVGFCVECGEWLCKTCIEAHQRVKFTKDHLIRKKEDVSESVGASGQRPVFCPVHKQEQLKLFCETCDRLTCRDCQLLEHKEHRYQFLEEAFQNQKGAIENLLAKLLEKKNYVHFAATQVQNRIKEVNETNKRVEQEIKVAIFTLINEINKKGKSLLQQLENVTKERQMKLLQQQNDITGLSRQVKHVMNFTNWAIASGSSTALLYSKRLITFQLRHILKARCDPVPAANGAIRFHCDPTFWAKNVVNLGNLVIESKPAPGYTPNVVVGQVPPGTNHISKTPGQINLAQLRLQHMQQQVYAQKHQQLQQMRMQQPPAPVPTTTTTTQQHPRQAAPQMLQQQPPRLISVQTMQRGNMNCGAFQAHQMRLAQNAARIPGIPRHSGPQYSMMQPHLQRQHSNPGHAGPFPVVSVHNTTINPTSPTTATMANANRGPTSPSVTAIELIPSVTNPENLPSLPDIPPIQLEDAGSSSLDNLLSRYISGSHLPPQPTSTMNPSPGPSALSPGSSGLSNSHTPVRPPSTSSTGSRGSCGSSGRTAEKTSLSFKSDQVKVKQEPGTEDEICSFSGGVKQEKTEDGRRSACMLSSPESSLTPPLSTNLHLESELDALASLENHVKIEPADMNESCKQSGLSSLVNGKSPIRSLMHRSARIGGDGNNKDDDPNEDWCAVCQNGGDLLCCEKCPKVFHLTCHVPTLLSFPSGDWICTFCRDIGKPEVEYDCDNLQHSKKGKTAQGLSPVDQRKCERLLLYLYCHELSIEFQEPVPASIPNYYKIIKKPMDLSTVKKKLQKKHSQHYQIPDDFVADVRLIFKNCERFNEMMKVVQVYADTQEINLKADSEVAQAGKAVALYFEDKLTEIYSDRTFAPLPEFEQEEDDGEVTEDSDEDFIQPRRKRLKSDERPVHIK
